Among all 320,000 compounds or so, about 22,000 (6.9%) were called active. This list was built around the results that the source calls inconclusive (neither active nor inactive); the mix of calls is not that of the screen. Calls come from the whole dose curve; as a rule, active = well fitted inhibition curve with a large enough effect; inconclusive = small, poorly fitted or top-dose-only effect, or another doubt; inactive = no such curve, though single readings can be large or run the other way. Where the call is inconclusive, the potency comes from a doubtful curve fit.
assay: Primary qHTS for delayed death inhibitors of the malarial parasite plastid, 96 hour incubation; conditions: P. falciparum luciferase reporter growth; series mostly up to 28.7 µM
In short: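 P. falciparum expressing integrated firefly luciferase grown in erythrocytes (2% hematocrit, 0.05% parasitemia final) with compounds for 96 hours at 37 C, 5% CO2. Growth inhibition read as loss of luminescence after adding luciferase detection reagent.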
Potency is the fitted concentration of half-maximal effect.

SMILES	Potency
COc1cc(/C=N/N(C)S(=O)(=O)c2ccc(C)cc2)cc([N+](=O)[O-])c1O	inconclusive: 0.0041 µM [inhibitor, full curve, poor fit]
COc1ccc(NC2CCCN(C(=O)Cn3ccc(C)n3)C2)cc1OC (configuration not stated)	active: 5.22 µM
CC(OC(=O)c1ccccn1)C(=O)Nc1ccc(C(F)(F)F)cc1 (configuration not stated)	inconclusive: 18.5 µM [inhibitor, single point]
CCOc1ccc(S(=O)(=O)N2CCC(C(=O)NCc3ccccn3)CC2)cc1C	inactive
O=C(O)c1c2c(nc3ccccc13)/C(=C/c1cccc([N+](=O)[O-])c1)CCC2	inactive
Cc1cc(N(CN2CCCC2=O)C(=O)c2ccc(F)cc2)no1	inconclusive: 14.7 µM [inhibitor, single point]
O=C(c1ccc(-n2cccc2)cc1)N1CCCCC1	inactive
COc1ccc(NC(=O)COc2ccc(N(C)S(=O)(=O)c3ccc(Cl)cc3)cc2)cc1	inconclusive: 14.7 µM [inhibitor, partial curve, poor fit]
CCOCCCNC(=O)CSCc1nc(-c2ccc(SC)cc2)oc1C	inactive
Cc1cc(N2CCOCC2)nc(SCC(=O)OCc2ccccc2)n1	inconclusive: 4.15 µM [inhibitor, partial curve, poor fit]
Cc1ccc(C(O)Cn2nc(C)cc2C)cc1 (configuration not stated)	inactive
O=C(COc1ccc(Cl)cc1)NCc1nnc(SCC(=O)Nc2ccccc2)o1	inconclusive: 4.15 µM [inhibitor, partial curve, poor fit]
Cc1cc(C)c[n+](CC(=O)c2ccc(-c3ccccc3)cc2)c1	active: 14.7 µM
FC(F)(F)C(F)(F)c1nnc2ccc(-n3ccnc3)nn12	inconclusive: 5.86 µM [inhibitor, partial curve]
O=C(Nc1ccc(OC(F)(F)F)cc1)c1[nH]ncc1[N+](=O)[O-]	inconclusive: 18.5 µM [inhibitor, single point]
O=C(Nc1c(C(=O)N2CCOCC2)cnn1-c1ccccc1)c1ccc([N+](=O)[O-])cc1	inconclusive: 20.8 µM [inhibitor, partial curve, poor fit]
COc1ccc(/C=C2\N=C(C)N(c3ccc4ccccc4c3)C2=O)cc1OC	inconclusive: 2.62 µM [inhibitor, single point]
Cc1nc(NC(=O)CC(C)C)sc1-c1csc(Nc2ccc(Cl)cc2Cl)n1	active: 9.28 µM
Cn1c(=O)[nH]c(=O)c2c1nc(N1CCCCC1)n2CC(O)COc1ccccc1 (configuration not stated)	inconclusive: 13.1 µM [inhibitor, single point]
CC1CCN(C(=O)CSCC(=O)Nc2nc(-c3cccs3)cs2)CC1	inconclusive: 9.28 µM [inhibitor, single point]
COc1ccc(/C=C(\NC(=O)c2ccc([N+](=O)[O-])cc2)C(=O)NCCCN2CCOCC2)cc1	inconclusive: 10.4 µM [inhibitor, single point]

SMILES	Potency
CC(C)(C)NC(=O)COC(=O)c1ccc(S(=O)(=O)N2CCCC2)cc1	inactive
CC(C)(Cc1ccc(O)cc1)NC(=O)CC(=O)N=Nc1c(O)[nH]c2cc(Br)ccc12	inconclusive: 11.7 µM [inhibitor, single point]
Cc1ccc2c(c1)c1c(n2CC(O)CN2CCOCC2)CCCC1 (configuration not stated)	inconclusive: 18.5 µM [inhibitor, single point]
CCCc1cc(=O)oc2cc(C)cc(OC(C)C(=O)NCCCN3CCOCC3)c12 (configuration not stated)	inconclusive: 18.5 µM [inhibitor, single point]
COC(=O)[C@]1(C)N[C@H](c2ccc(-c3ccc(Cl)c(Cl)c3)c(OC)c2)[C@@H]2C(=O)N(C)C(=O)[C@@H]21	active: 3.29 µM
CN(C)S(=O)(=O)c1cccc(NC(=O)CSc2cccc3cccnc23)c1	active: 7.38 µM
COc1ccc(Cc2nc3ccc(C(=O)N(C)CCn4ccnc4)cc3o2)cc1OC	inconclusive: 16.5 µM [inhibitor, partial curve, poor fit]
CSC1=NC(C)(C)CC2(C)Nc3ccccc3N12 (configuration not stated)	inconclusive: 9.28 µM [inhibitor, single point]
NC1=NN=C(N2N=C(c3ccco3)CC2(O)C(F)(F)F)n2ncnc2C1 (configuration not stated)	inconclusive: 0.0928 µM [inhibitor, full curve, poor fit]
C=CCNC(=O)C1CCC(C(=O)NCC=C)CC1 (configuration not stated)	inconclusive: 0.0033 µM [inhibitor, full curve, poor fit]
CC(C)(C)C1CCC(OCC(O)CN2CCCC2)CC1 (configuration not stated)	inconclusive: 18.5 µM [inhibitor, single point]
CN(CC(=O)Nc1cccc(F)c1)C(=O)c1ccc(COc2ccccc2)o1	inconclusive: 11.7 µM [inhibitor, single point]
CC1CC(C)(C)N(C(=O)CSc2ccc(-c3ccc(F)cc3)nn2)c2ccccc21 (configuration not stated)	inconclusive: 18.5 µM [inhibitor, single point]
O=C(Nc1nnc(-c2cccs2)s1)c1cccc(F)c1	inactive
CC(C)[C@H](NC(=O)c1ccc(C(C)(C)C)cc1)C(=O)Nc1nnc(C2CC2)s1	inconclusive: 10.4 µM [inhibitor, partial curve, poor fit]
NS(=O)(=O)c1ccc(N=Nc2c(O)[nH]c(=S)[nH]c2=O)cc1	inconclusive: 0.165 µM [inhibitor, partial curve, poor fit]
COc1cccc(-c2nc(-c3ccccn3)no2)c1	inconclusive: 0.131 µM [inhibitor, full curve, poor fit]
Cc1cccc(NC(=S)NC(C)CCc2ccccc2)c1 (configuration not stated)	inconclusive: 11.7 µM [inhibitor, single point]
O=C(CN1C(=O)NC(Cc2c[nH]c3ccccc23)C1=O)NCCc1ccccc1 (configuration not stated)	inactive
CCN(CC(=O)NCc1cccs1)C(=O)c1cccc(S(=O)(=O)N2CCc3ccccc32)c1	inconclusive: 11.7 µM [inhibitor, single point]
CCN(CC)C(=O)Oc1cc(COC)nc(-c2ccccc2)n1	inconclusive: 10.4 µM [inhibitor, partial curve, poor fit]

Part of the list above in order of heavy-atom count, largest number first:
SMILES	Potency
CC(C)(Cc1ccc(O)cc1)NC(=O)CC(=O)N=Nc1c(O)[nH]c2cc(Br)ccc12	inconclusive: 11.7 µM [inhibitor, single point]
CC(C)[C@H](NC(=O)c1ccc(C(C)(C)C)cc1)C(=O)Nc1nnc(C2CC2)s1	inconclusive: 10.4 µM [inhibitor, partial curve, poor fit]
Cc1ccc2c(c1)c1c(n2CC(O)CN2CCOCC2)CCCC1 (configuration not stated)	inconclusive: 18.5 µM [inhibitor, single point]

— PubChem BioAssay AID504834 (National Center for Advancing Translational Sciences (NCATS), 2011)
